The supplement of paper PMC8256030
Where “and” joins values, the source holds several entries; their conditions need not be identical. Identical values can stand only once. Counter-ions that a name gives are not always drawn. The list shows a part of the results. Repeats in this data set agree poorly, so a single value says little.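 HEK293T cells were given each compound shortly before transfection with a reporter in which red mCherry is followed by the SARS-CoV-2 frameshift element and then GFP in the −1 frame, so GFP appears only after frameshifting.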

Tests used:
[1] = tested on: SARS-CoV-2 -1 PRF reporter mCherry-FSE-GFP(-1); assay: mCherry (red) intensity as percent of control; higher = higher upstream reporter expression; settings: 10 µM; 24 h; HEK293T
[2] = tested on: SARS-CoV-2 -1 PRF reporter mCherry-FSE-GFP(-1); assay: percent effect, decrease of GFP/mCherry ratio (-1 PRF reporter) relative to controls; higher = stronger frameshift inhibition; settings: 10 µM; 24 h; HEK293T

SMILES	mCherry [1]	percent effect [2]
CC(C)NCC(O)COc1ccc(CCOCC2CC2)cc1 (stereo not drawn) [Betaxolol·HCl]	84.6%	9%
Nc1nc(=O)n([C@@H]2O[C@H](CO)[C@@H](O)[C@@H]2F)cc1I [fiacitabine]	99.4%	-0.601%
C=C(C)Cn1c(N)cc(=O)n(C)c1=O [amisometradine]	63.2%	-3.84%
CCN(CC)CCOc1ccc(C(O)(Cc2ccc(Cl)cc2)c2ccc(C)cc2)cc1 (stereo not drawn) [triparanol]	27.9%	-6.88%
CC(C)c1c(C(=O)Nc2ccccc2)c(-c2ccccc2)c(-c2ccc(F)cc2)n1CC[C@@H](O)C[C@@H](O)CC(=O)O [atorvastatin]	96% and 95.1%	-5.66% and -1.15%
O=C(O)c1cc(=O)c2c(OCC(O)COc3cccc4oc(C(=O)O)cc(=O)c34)cccc2o1	95.8%	2.16%
COc1ccc2c3c1O[C@H]1C[C@@H](O)C=C[C@@]31CCN(C)C2 [galantamine]	91.7% and 78.1%	2.56% and -4.99%
NC12CC3CC(CC(C3)C1)C2 [Amantadine·HCl]	110%	-3.31%
CC[C@H]1OC(=O)C[C@@H](O)[C@H](C)[C@@H](O[C@@H]2O[C@H](C)[C@@H](O[C@H]3C[C@@](C)(O)[C@@H](O)[C@H](C)O3)[C@H](N(C)C)[C@H]2O)[C@@H](CC=O)C[C@@H](C)C(=O)/C=C/C(C)=C/[C@@H]1CO[C@@H]1O[C@H](C)[C@@H](O)[C@@H](OC)[C@H]1OC [Tylosin]	73.4%	-9.06%
COc1c2ccoc2cc2oc(=O)ccc12	104%	-0.52%
CNC1COc2ccccc2C(O)C1 (stereo not drawn) [exepanol]	91.8%	-6.02%
O=S(=O)([O-])NC1CCCCC1.[Na+] [sodium cyclamate]	78.1%	0.934%
Cn1c(=O)c2c(ncn2CCN2CCC(c3c[nH]c4ccccc34)CC2)n(C)c1=O [tameridone]	118%	3.78%
CC(C)(O)c1ccccc1CC[C@@H](SCC1(CC(=O)O)CC1)c1cccc(/C=C/c2ccc3ccc(Cl)cc3n2)c1 [montelukast]	88.4% and 88.3%	-1.04% and 2.46%
